Measured values from patent US4292319A, “Antiphlogistic pharmaceutical compositions and method of use” (Boehringer Ingelheim GmbH, priority 1977, dated 1981).

Tested on: stomach of the rat
Assay: Test for ulcerogenic effect on the stomach of the rat
Type: in vivo, rat (Chbb:THOM)
Conditions: added to antiphlogistics, oral
Experimental: (1) Test for ulcerogenic effect on the stomach of the rat
The test was carried out on male and female (1:1) Chbb:THOM-rats with a body weight between 130 to 150 gm at the beginning of the study.
The test substances (non-steroidal anti-phlogistics or mixtures of these antiphlogistics with pirenzepine dihydrochloride) were administered as triturations in 1% tylose (1 ml/100 gm animal) by way of an esophageal tube once a day on three successive days.
Four hours after the last administration (i.e. on the 3rd day) the animals were killed by an over-dose of ether. The stomachs wer dissected, cut along the great curvature and washed under flowing water for subsequent macroscopic evaluation.

## CN1CCN(CC(=O)N2c3ccccc3C(=O)Nc3cccnc32)CC1.Cl.Cl [A, 5,11-dihydro-11-[(4-methyl-1-piperazinyl)-acetyl]-6H-pyrido[2,3-b] [1,4] benzodiazepin-6-one dihydrochloride]
dihydrochloride
  effect on ulcerogenicity (ED50) of non-steroidal antiphlogistics: weakened in dose-dependent manner
Listed as pirenzepine dihydrochloride
  effect on ulcerogenicity (ED50) of non-steroidal antiphlogistics: dose-dependent increase
